# Test results reported in PubChem BioAssay AID2685 (National Center for Advancing Translational Sciences (NCATS), 2010).
# In all, about 320,000 compounds went through this assay and about 2,100 (0.66%) were called active. Inconclusive results, whose numbers are uncertain, are shown with a selection of clear calls. Calls follow the shape of the dose curve; as a rule, active = well fitted inhibition curve with a large enough effect in the signal ratio, with a control signal flat (not every such curve was filed as active); inconclusive = small, poorly fitted or top-dose-only effect, or effect the other way, or a change in a side signal; inactive = flat fitted curve, though single readings scatter; the % refers to the signal ratio. Potencies of inconclusive entries are doubtful fits and often do not repeat.
# Test: qHTS Assay for Lipid Storage Modulators in Drosophila S3 Cells
# Conditions: BODIPY lipid droplet fluorescence, 18-24 h, cells fed with added oleic acid; lipid storage change, negative = inhibition: at 46.1 µM (top of the series) unless noted
# How it was run: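 Drosophila S3 cells loaded with oleic acid (400 uM, as added) and compounds at several concentrations; lipid droplets imaged by 488-nm laser-scanning cytometry, 500–530 nm intensity and object ratio to cell channel. Percent activity normalized to 20 uM Triacsin C.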
# % is scaled to controls: 0 for no effect and ±100 for the full control effect; potency is read from the fitted curve at half-maximal effect.
Compound,"lipid storage change, negative = inhibition",Potency
CCCc1cnc(N2CCN(C(=O)c3ccccc3)CC2)nc1,inconclusive: 17.1%,–
CCCn1c(=O)[nH]c(=O)c2c1nc(-c1ccc(C(F)(F)F)cc1)n2CCOC,–,"inconclusive: 0.0058 µM [activator, full curve, poor fit]"
COCCN(C(=O)CSc1cc(C)c2ccccc2n1)c1c(N)n(CC(C)C)c(=O)[nH]c1=O,inconclusive: -38.5%,–
O=C(CSc1nnc(-c2ccc(Cl)s2)o1)N1CCOCC1,inconclusive: 7.02%,–
COC(=O)c1cc(Br)c(=O)n(Cc2ccc(OC)c(OC)c2)c1,–,"inconclusive: 0.82 µM [activator, partial curve]"
CCC(OCC(O)CN1CCCCC1)c1ccccc1 (stereo not given),inconclusive: 39.1%,–
O=C(Cc1cccc2ccccc12)NNC(=O)Nc1ccc(Cl)cc1,inconclusive: -4.2%,–
CCOC(=O)C1=C(C)N(C)C(=O)NC1c1c(C)nn(-c2ccccc2)c1C (stereo not given),inconclusive: 38.1%,–
CN1C(=O)CC(N2CCC(c3nc4ccccc4[nH]3)CC2)C1=O (stereo not given),–,"inconclusive: 2.91 µM [activator, single point]"
OC(CN1CCOCC1)c1ccc(F)cc1 (stereo not given),inconclusive: -16.5%,–
COc1ccc(CCNC(=O)C(C)SCc2ccccc2)cc1 (stereo not given),inconclusive: -59.5% [at 0.00295 µM],–
Cn1c(N)cc(=O)n(Cc2ccccc2)c1=O,inconclusive: 7.56%,–
Cc1cc(CSc2ccccc2)ccc1NC(=O)c1ccc(C)c([N+](=O)[O-])c1,inconclusive: 0.256%,–
CCOc1cc(N2CCOCC2)c(OCC)cc1NC(=O)Cn1nc(C)c([N+](=O)[O-])c1C,inconclusive: 11.8%,–
O=C(CCNC(=O)c1ccccc1Cl)NNC(=O)c1ccccc1O,inconclusive: -5.73%,–
S=C1NC(c2ccccc2)=NCN1c1ccc(Cl)cc1,–,"inconclusive: 0.651 µM [activator, full curve, poor fit]"
COc1ccc(CCNC(=O)COC(=O)Cn2cnc3ccccc32)cc1OC,–,"inconclusive: 29.1 µM [activator, single point]"
C/C(=N\Nc1cc(N2CCOCC2)nc(C)n1)c1ccc(F)cc1,inactive,–
COC(=O)c1ccccc1NC(=O)C1CC(c2ccc(F)cc2)=NO1 (stereo not given),inconclusive: 5.76%,–
CCC1CCCCN1CCNC(=O)CCS(=O)(=O)c1ccc(Br)cc1 (stereo not given),inconclusive: -16.1%,–
Fc1ccccc1N1CCN(C(c2ccncc2)c2nnnn2C2CCCC2)CC1 (stereo not given),inconclusive: 43.6%,–
CCN(Cc1cnn(C)c1)C(=O)c1cc(COc2cc(C)c(Cl)c(C)c2)on1,inconclusive: 68.5%,–
CCCCN(C)Cc1c(C)[nH]c2ccc(Cl)cc2c1=O,inconclusive: 30.2%,–
CCOC(=O)c1sc2nc(C3CC3)cc(-c3ccc(F)cc3)c2c1N,inconclusive: -36.5%,–
Cc1cc(=O)n2nc(N3CCCC3C(=O)Nc3ccc(C(C)C)cc3)sc2n1 (stereo not given),inconclusive: -6.88%,–
CCOc1ccccc1Nc1ccc(C(=O)O)cc1NC(C)=O,–,"inconclusive: 10.3 µM [activator, partial curve, poor fit]"
COc1cc(CC(=O)OCc2cccc([N+](=O)[O-])c2)cc(OC)c1OC,inconclusive: -17.2%,–

# Sorted by formula weight (high to low): part of the list above.
Compound,"lipid storage change, negative = inhibition",Potency
CCOc1cc(N2CCOCC2)c(OCC)cc1NC(=O)Cn1nc(C)c([N+](=O)[O-])c1C,inconclusive: 11.8%,–
CCCn1c(=O)[nH]c(=O)c2c1nc(-c1ccc(C(F)(F)F)cc1)n2CCOC,–,"inconclusive: 0.0058 µM [activator, full curve, poor fit]"
C/C(=N\Nc1cc(N2CCOCC2)nc(C)n1)c1ccc(F)cc1,inactive,–

# (list continues)

Compound,"lipid storage change, negative = inhibition",Potency
CC[n+]1ccccc1/C=C1\Sc2ccc(C)cc2N1C,inconclusive: -93.9%,–
CCOc1ccc2c(c1)C(C)=CC(C)(C)N2S(=O)(=O)c1ccc(C)cc1,inactive,–
O=C(CN1CCCCC1)Nc1nc(-c2ccc(F)c(F)c2)cs1,–,"inconclusive: 9.2 µM [activator, partial curve]"
CC(=O)NC(CC(=O)Nc1nc(-c2ccc(N(C)S(C)(=O)=O)cc2)cs1)c1ccccc1 (stereo not given),–,"inconclusive: 6.51 µM [falling, single point]"
Nc1cc(N)nc(SCC(=O)Nc2ccccc2N2CCOCC2)n1,inconclusive: 26.1%,–
CCCCOCCCNC(=O)c1ccc(OCC)cc1,–,"inconclusive: 14.6 µM [activator, partial curve]"
COc1ccc(NC(=O)/C=C/c2cccc(C(F)(F)F)c2)cn1,inconclusive: -100%,–
CC(=O)c1ccc(N2CCN(C(=O)c3noc4c3CSc3ccccc3-4)CC2)cc1,–,"inconclusive: 13 µM [activator, partial curve]"
NC(=O)COC(=O)C1c2ccccc2Oc2ccccc21,inconclusive: -20.3%,–
CCn1cc(C(=O)OCC(=O)N2C(C)CCCC2C)c(=O)c2ccc(C)nc21 (stereo not given),–,"inconclusive: 0.184 µM [rising, full curve]"
O=C(CC(O)(c1ccccc1)C(F)(F)F)c1cccs1 (stereo not given),–,"inconclusive: 6.51 µM [cytotoxic, single point]"
Cc1cc(=O)[nH]c(SCC(=O)N2CCC(Cc3ccccc3)CC2)n1,inconclusive: 50.5%,–
O=C(c1ccc(Cl)cc1)N1CCC(C(=O)N2CCN(c3ncccn3)CC2)CC1,inconclusive: -23.1%,–
CC(/C=C/c1ccc(N(C)C)cc1)=N\N=C(/N)SC1CC(=O)N(c2ccc(C(=O)O)cc2)C1=O (stereo not given),inconclusive: 4.15%,–
Nc1cc2ccncc2c2ccccc12,inconclusive: 12.3%,–
COc1ccc(-c2nnc(Nc3ccc(CC(N)=O)cc3)c3ccccc23)cc1,–,"inconclusive: 29.1 µM [falling, single point]"
Cc1ccc(NC(=O)Cc2nnc(SCC(=O)Nc3nncs3)n2C)cc1,inconclusive: 42.5%,–
COc1cccc(C(=O)COc2ccccc2-c2ccccc2)c1,–,"inconclusive: 23.1 µM [activator, single point]"
Cc1nn(-c2ccccc2)c2c1C(O)CC(C)(C)C2 (stereo not given),inconclusive: -14%,–
CC(c1ccccc1)C1C(C#N)=C(N)SC(N)=C1C#N (stereo not given),inconclusive: 14.8%,–
CCOC(=O)C(=NC1CCCCC1)NNc1cccc(C(F)(F)F)c1,inconclusive: -45.6%,–
Clc1cnc(N/N=C/c2ccco2)c(Cl)c1,inconclusive: -8.96%,–
Cc1noc(C)c1COc1ccc(C(=O)N2CC(C)CC(C)C2)cc1 (stereo not given),inconclusive: -7.68%,–
O=C(NCc1ccc(F)cc1)c1ccc(S(=O)(=O)Nc2cccc(C(F)(F)F)c2)cc1,inconclusive: -12.8%,–
COc1ccc(/C=C/C(=O)c2ccc(Cl)cc2)c(OC)c1,inactive,–
Cc1ccc2nc(C)c(C(=O)N/N=C/c3ccc(N4CCOCC4)cc3)cc2c1,inconclusive: 1.65%,–
Cc1cccc(N2CCN(S(C)(=O)=O)CC2)c1C,–,"inconclusive: 16.4 µM [activator, single point]"

Compound,"lipid storage change, negative = inhibition",Potency
CCOC(=O)COc1cc2c(C(=O)OCC)c(C)oc2cc1Br,inconclusive: -18%,–
Cc1nnn(-c2nonc2N)c1C(=O)NNC(=O)c1ccc(Cl)c(Cl)c1,inconclusive: 41.5%,–
Cc1ccc(C(=O)N2CCCC(CCC(=O)N3CCN(c4ccccn4)CC3)C2)cc1C (stereo not given),–,"inconclusive: 25.9 µM [falling, single point]"
CC(C)CC1NC(=O)c2ccccc2-n2c1nc1cc(F)ccc1c2=O (stereo not given),inconclusive: 3.88%,–
CC(C)N1C(=O)C(=O)N(CC(=O)N2CCc3ccccc32)C1=O,–,"inconclusive: 2.91 µM [activator, partial curve, poor fit]"
O=C(O)CCCC(=O)N1CCCC1,inconclusive: -9.24%,–
COc1ccccc1N1CCN(CCCCOc2cccc3ccccc23)CC1,inconclusive: 7.79%,–
O=C(CN1C(=O)NC2(CCCCC2)C1=O)N1CCN(S(=O)(=O)c2ccc(F)cc2)CC1,inconclusive: 24.6%,–
CCCNC(=O)c1nc2ncc(Br)cn2n1,–,"inconclusive: 0.82 µM [falling, full curve]"
COc1ccc(C(=O)COC(=O)c2ccc(-n3cnnn3)cc2)c(OC)c1,inconclusive,–
COc1ccc(Cl)cc1C(=O)NNC(=O)c1cccnc1,inactive,–
O=C(Nc1ccc2c(c1)OCO2)c1c(F)c(F)c(F)c(F)c1F,inconclusive: 87.5%,–
Cc1ccc(SCC(=O)Nc2cccc(S(=O)(=O)N3CCOCC3)c2)cc1C,inconclusive: -88.2%,–
O=C(NCCCN1CCOCC1)c1cc(Cl)ccc1[N+](=O)[O-],inconclusive: -0.737%,–
O=C(/C=C\Nc1ccc(Cl)cn1)c1ccc(Br)cc1,–,"inconclusive: 23.1 µM [falling, single point]"
CCOCCCn1c(SCC(=O)N2CCOCC2)nc2ccccc2c1=O,inconclusive: -100%,–
COc1cccc(Nc2nnc(SCn3nnc4ccccc4c3=O)s2)c1,inconclusive: 21.4%,–
CCC(=O)c1ccc(N2CCN(C(=O)c3cccs3)CC2)c(F)c1,–,"inconclusive: 25.9 µM [falling, single point]"
O=C1Nc2ccccc2C(=O)N2C[C@@H](O)C[C@H]12,inconclusive: 28%,–
COC(=O)c1sccc1NC(=O)c1ccc(Br)s1,–,"inconclusive: 3.66 µM [activator, single point]"
CCOC(=O)c1nnc(-c2ccccc2)nc1Sc1c(Cl)cccc1Cl,–,"inconclusive: 0.0058 µM [falling, full curve, poor fit]"
c1cncc(-c2ccc3ncnc(NCc4cccs4)c3c2)c1,inconclusive: 24%,–
COc1ccc(-c2nc3n(n2)C(c2ccccc2)C2=C(CCCC2=O)N3)cc1OC (stereo not given),inconclusive: 60.6%,–
CCOC(=O)c1nnn(-c2nonc2-n2cccc2)c1C,inconclusive: 7.66%,–
COCc1nnc(SCC(=O)NCc2ccccc2)n1-c1ccccc1,inconclusive: 98.2%,–
O=C(COc1coc(CN2CCN(c3ccccc3)CC2)cc1=O)NC1CCCC1,inconclusive: -9.86%,–

# Of the compounds above, 3 contain a COOH group:
Compound,"lipid storage change, negative = inhibition",Potency
CCOc1ccccc1Nc1ccc(C(=O)O)cc1NC(C)=O,–,"inconclusive: 10.3 µM [activator, partial curve, poor fit]"
CC(/C=C/c1ccc(N(C)C)cc1)=N\N=C(/N)SC1CC(=O)N(c2ccc(C(=O)O)cc2)C1=O (stereo not given),inconclusive: 4.15%,–
O=C(O)CCCC(=O)N1CCCC1,inconclusive: -9.24%,–
